Test results from patent US20150140018A1 (MEDICAL AND BIOLOGICAL LABORATORIES, published 2015).
Positions count from the first letter of the chain named. These are yes or no findings as the source states them, for the method shown. Some results given as binding are weak or reduced against the parent protein; the word gives no strength. Blank lines part the entries; values can stand above or below the binder they belong to.

Sequences of proteins named here, by UniProt entry; tags and fusion partners are left off. Residues count along the entry.
UniProt P78310, residues 20-365: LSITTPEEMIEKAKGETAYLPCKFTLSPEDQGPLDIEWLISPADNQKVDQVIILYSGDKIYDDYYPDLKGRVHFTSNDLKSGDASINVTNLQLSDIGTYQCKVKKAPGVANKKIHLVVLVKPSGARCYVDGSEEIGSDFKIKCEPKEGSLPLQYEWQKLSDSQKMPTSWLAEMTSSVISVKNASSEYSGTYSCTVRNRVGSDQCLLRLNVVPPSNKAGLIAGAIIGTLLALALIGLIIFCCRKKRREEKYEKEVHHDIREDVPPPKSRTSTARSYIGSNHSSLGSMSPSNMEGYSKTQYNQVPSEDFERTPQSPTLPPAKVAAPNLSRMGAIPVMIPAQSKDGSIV

Target: CXADR protein expressed on Ba/F3 cells (CXADR-expressing cells) (human) (UniProt P78310)
Assay: flow cytometry, hybridoma antibody on Ba/F3 cells expressing CXADR

binding: binds
B1: anti-CXADR antibody 7F8A (antibody, V domains shown)
VH: DVQLQESGPGLVKPSQTVSLTCTVTGYSITNGNHWWNWIRQVSGSKLEWIGYINSSGSTDSNPSLKSRISITRDTSKNQLFLQLNSVTIEDIATYYCARDDYYFDYWGQGTTLTVSS
VL: DIQMTQSPASLSASVGETVTITCRASENIDSYLAWYQQKQGKSPQLLVYAATLLADGVPSRFSGSGSGTQYSLKINSLQSEDVARYYCQHYYSTPLTFGAGTKLELKR
notes: also called 7F8A clone

binding: binds
B2: anti-CXADR antibody 6G10A (antibody, V domains shown)
VH: QVQLQQPGAELVKPGASVKLSCKASGYTFTSYWINWVKQRPGQGLEWIGNIYPGSSSTKYNEKFKSKATLTVDTSSSTAHMQLSSLTSDDSAVYYCAKGDGDYFADWGQGTLVTVSA
VL: B1 VL with L96W, A100G, L106I
